The source of these data is article PMC3274540 (PLoS ONE, 2012).

For assay [1], the target named is estrogen receptor ERβ, BRET fusion (pCMX-YFP-ERβ) (UniProt Q92731). Put plainly: FRET or BRET; BRET in living HEK293 cells co-transfected with ERα-RLuc + YFP-ERβ, ERα-RLuc + ERα-YFP or RLuc-ERβ + YFP-ERβ; cells in PBS incubated 1 hour with angolensin (R) (1 nM to 10 µM tested; below 1 µM the ratios were as with vehicle); coelenterazine h 5 µM. On the technique in general: Bioluminescence resonance energy transfer reports proximity on the nanometre scale.

Assay [2] addresses T1, estrogen receptor ERβ, BRET fusion (pCMX-YFP-ERβ), Q92731.
T1 chain: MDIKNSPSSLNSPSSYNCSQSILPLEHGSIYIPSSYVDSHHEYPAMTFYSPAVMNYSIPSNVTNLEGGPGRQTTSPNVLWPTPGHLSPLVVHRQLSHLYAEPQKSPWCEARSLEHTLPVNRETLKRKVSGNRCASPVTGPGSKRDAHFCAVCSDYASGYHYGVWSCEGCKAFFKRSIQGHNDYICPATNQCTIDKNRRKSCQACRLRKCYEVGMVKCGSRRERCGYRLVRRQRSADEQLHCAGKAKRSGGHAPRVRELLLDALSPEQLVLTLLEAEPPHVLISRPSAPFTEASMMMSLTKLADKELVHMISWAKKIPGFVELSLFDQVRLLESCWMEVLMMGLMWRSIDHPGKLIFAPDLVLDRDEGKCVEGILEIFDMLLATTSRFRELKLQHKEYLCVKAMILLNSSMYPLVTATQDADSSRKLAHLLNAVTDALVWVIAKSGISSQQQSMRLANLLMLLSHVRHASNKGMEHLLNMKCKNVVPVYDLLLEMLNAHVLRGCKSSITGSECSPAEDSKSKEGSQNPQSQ
Put plainly: FRET or BRET; BRET in living HEK293 cells co-transfected with ERα-RLuc + YFP-ERβ, ERα-RLuc + ERα-YFP or RLuc-ERβ + YFP-ERβ; cells in PBS incubated 1 hour with cosmosiin (1 nM to 10 µM tested; below 1 µM the ratios were as with vehicle); coelenterazine h 5 µM. Conditions: remark: other sources report otherwise.

These are yes or no findings as the source states them, for the method shown. In cells and extracts the contact can be indirect. Some entries that bind do so weakly or less than the wild type. For some assays here: Sequences can lack the tags named with a protein.

“estrogen receptor ERβ, BRET fusion (pCMX-YFP-ERβ) (from UniProt Q92731 1-530)”: the binding entry in assay [1] was “no binding (condition: with angolensin (1 µM and 10 µM))”.

B1: estrogen receptor ERβ, BRET fusion (pCMX-YFP-ERβ), Q92731 1-530 (receptor)
chain: T1 chain
With B1, the binding entry in assay [2] is “binds”.
